Measurements reported in paper PMC5405113.
These are yes or no findings as the source states them, for the method shown. Binding seen in cells or lysates may run through a third protein. Some entries that bind do so weakly or less than the wild type. Sequences can lack the tags named with a protein.

T1: Apc1-GFP (fission yeast (S. pombe)) (UniProt Q9URV2)
T1 sequence: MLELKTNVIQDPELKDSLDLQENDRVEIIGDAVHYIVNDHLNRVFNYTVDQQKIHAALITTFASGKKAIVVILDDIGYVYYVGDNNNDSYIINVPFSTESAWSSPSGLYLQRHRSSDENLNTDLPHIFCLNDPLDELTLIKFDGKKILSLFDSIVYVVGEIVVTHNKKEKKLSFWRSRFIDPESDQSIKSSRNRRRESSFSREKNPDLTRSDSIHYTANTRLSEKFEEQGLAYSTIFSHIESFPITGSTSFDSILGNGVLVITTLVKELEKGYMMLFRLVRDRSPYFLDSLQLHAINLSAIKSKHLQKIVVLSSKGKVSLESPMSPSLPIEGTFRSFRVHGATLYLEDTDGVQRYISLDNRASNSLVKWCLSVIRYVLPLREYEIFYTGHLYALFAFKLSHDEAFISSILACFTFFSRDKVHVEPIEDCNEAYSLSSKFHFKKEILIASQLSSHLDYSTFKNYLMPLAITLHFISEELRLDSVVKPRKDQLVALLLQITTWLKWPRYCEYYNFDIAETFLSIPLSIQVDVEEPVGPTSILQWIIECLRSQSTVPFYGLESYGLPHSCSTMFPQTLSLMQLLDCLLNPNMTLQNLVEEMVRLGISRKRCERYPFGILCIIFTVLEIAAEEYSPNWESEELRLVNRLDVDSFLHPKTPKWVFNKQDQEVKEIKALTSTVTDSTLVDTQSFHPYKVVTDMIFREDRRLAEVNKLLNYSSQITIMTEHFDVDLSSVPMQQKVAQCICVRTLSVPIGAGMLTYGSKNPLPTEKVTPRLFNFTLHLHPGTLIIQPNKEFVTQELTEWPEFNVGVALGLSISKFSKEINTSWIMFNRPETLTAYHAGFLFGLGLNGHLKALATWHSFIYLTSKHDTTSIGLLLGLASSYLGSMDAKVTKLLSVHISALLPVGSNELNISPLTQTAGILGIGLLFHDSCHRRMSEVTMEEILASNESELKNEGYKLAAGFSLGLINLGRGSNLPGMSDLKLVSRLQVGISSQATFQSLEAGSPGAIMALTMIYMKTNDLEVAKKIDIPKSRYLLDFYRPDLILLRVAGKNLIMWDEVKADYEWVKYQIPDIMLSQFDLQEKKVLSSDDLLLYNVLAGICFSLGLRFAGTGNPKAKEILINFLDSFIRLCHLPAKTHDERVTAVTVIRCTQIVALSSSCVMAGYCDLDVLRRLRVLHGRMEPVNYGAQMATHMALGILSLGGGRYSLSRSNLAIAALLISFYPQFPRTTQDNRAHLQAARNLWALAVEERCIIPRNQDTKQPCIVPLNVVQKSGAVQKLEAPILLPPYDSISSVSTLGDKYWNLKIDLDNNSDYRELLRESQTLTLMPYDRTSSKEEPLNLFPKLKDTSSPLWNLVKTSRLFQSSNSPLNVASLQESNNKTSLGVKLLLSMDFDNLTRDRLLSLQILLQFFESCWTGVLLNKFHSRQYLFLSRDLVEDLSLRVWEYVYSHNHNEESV

T2: Cdc20^Slp1 with an internal 3×FLAG tag (fission yeast (S. pombe)) (UniProt P78972)
T2 sequence: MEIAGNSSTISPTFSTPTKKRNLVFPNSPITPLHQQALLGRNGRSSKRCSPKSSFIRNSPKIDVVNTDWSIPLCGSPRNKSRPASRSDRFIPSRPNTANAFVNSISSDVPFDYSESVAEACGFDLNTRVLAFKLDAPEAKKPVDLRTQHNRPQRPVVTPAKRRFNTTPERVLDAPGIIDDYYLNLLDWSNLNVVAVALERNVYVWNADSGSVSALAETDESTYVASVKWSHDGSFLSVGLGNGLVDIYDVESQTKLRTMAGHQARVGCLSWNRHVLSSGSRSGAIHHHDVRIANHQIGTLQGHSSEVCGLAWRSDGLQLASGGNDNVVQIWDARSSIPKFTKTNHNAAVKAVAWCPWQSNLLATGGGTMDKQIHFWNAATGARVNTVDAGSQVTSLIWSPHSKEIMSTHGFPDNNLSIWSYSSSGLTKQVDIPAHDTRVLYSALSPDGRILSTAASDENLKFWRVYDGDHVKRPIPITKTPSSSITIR

T3: Mad3-GFP (fission yeast (S. pombe)) (UniProt O59767)
T3 sequence: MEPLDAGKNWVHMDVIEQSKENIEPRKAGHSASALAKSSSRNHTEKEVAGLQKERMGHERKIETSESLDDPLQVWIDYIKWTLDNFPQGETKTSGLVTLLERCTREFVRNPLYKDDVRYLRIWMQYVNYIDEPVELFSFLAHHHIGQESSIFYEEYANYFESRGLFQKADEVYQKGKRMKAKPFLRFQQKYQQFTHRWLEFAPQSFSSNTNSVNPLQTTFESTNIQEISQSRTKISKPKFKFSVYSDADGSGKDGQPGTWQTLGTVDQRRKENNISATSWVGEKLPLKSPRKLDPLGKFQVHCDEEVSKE


Experiments:
[1] = biological target: T1, Apc1-GFP (fission yeast (S. pombe)); experiment: co-IP; Apc1-GFP immunoprecipitated (four rounds of immunodepletion) from lysates of cells arrested in metaphase by nda3; beads blotted for Apc15, Cdc20 and checkpoint proteins
[2] = biological target: T2, Cdc20^Slp1 with an internal 3×FLAG tag (fission yeast (S. pombe)); experiment: co-IP; Cdc20-FLAG immunoprecipitated from lysates of cdc25-22 cdc20-FLAG cells synchronised by cdc25 block and release, samples at 15-min intervals; wild type, apc14Δ and apc15Δ; blotted for Mad3 and Mad2
[3] = biological target: T2, Cdc20^Slp1 with an internal 3×FLAG tag (fission yeast (S. pombe)); experiment: co-IP; Cdc20-FLAG immunoprecipitated from the supernatant of mitotic lysates (cdc25-22 cdc20-HA cdc20-FLAG cut9-GFP, 60 min after release) after four rounds of Cut9-GFP immunodepletion of the APC/C; wild type and apc15Δ
[4] = biological target: T3, Mad3-GFP (fission yeast (S. pombe)); experiment: co-IP; strains expressing normal Mad3 and Mad3-GFP, mitotically arrested cells (Figure S3B)

binding [1] | binding [2] | binding [3] | binding [4] | Binder
binds | – | – | – | Apc15 (protein, UniProt O94688 1-136) MSFMSLMANTAHQLWYPTSFPSMKELEKEEVRLETQELAIKQFGFRTIRPIGLNRSMQEQLDLEEQEREEANQDTELDEEELGSGSFPEEGEMDDMDGDNEEVEDHDIEEVDLDADITNADASEFYEDISEYGFQN
– | binds | binds | – | Mad2 (protein, UniProt O14417 1-203) MSSVPIRTNFSLKGSSKLVSEFFEYAVNSILFQRGIYPAEDFKVVRKYGLNMLVSVDEEVKTYIRKIVSQLHKWMFAKKIQKLILVITSKCSGEDLERWQFNVEMVDTADQFQNIGNKEDELRVQKEIQALIRQITATVTFLPQLEEQCTFNVLVYADKDSEVPTDWVDSDPRILRDAEQVQLRSFSTSMHKIDCQVAYRVNP
– | binds | binds | no binding | Mad3 (protein, UniProt O59767 1-310) MEPLDAGKNWVHMDVIEQSKENIEPRKAGHSASALAKSSSRNHTEKEVAGLQKERMGHERKIETSESLDDPLQVWIDYIKWTLDNFPQGETKTSGLVTLLERCTREFVRNPLYKDDVRYLRIWMQYVNYIDEPVELFSFLAHHHIGQESSIFYEEYANYFESRGLFQKADEVYQKGKRMKAKPFLRFQQKYQQFTHRWLEFAPQSFSSNTNSVNPLQTTFESTNIQEISQSRTKISKPKFKFSVYSDADGSGKDGQPGTWQTLGTVDQRRKENNISATSWVGEKLPLKSPRKLDPLGKFQVHCDEEVSKE
